From patent US20250032590A1, “PARATHYROID HORMONE COMPOUNDS IN THE TREATMENT OF HYPOPARATHYROIDISM” (AMOLYT PHARMA, priority 2023, published 2025)
At least one peptide structure holds a part that was inferred or is arguable (an end, a ring closure or a residue). No end group written: not given here.

How the values were obtained:
[1] = system: non-human primates; settings: cited from earlier work
[2] = system: normal cynomolgus monkeys; assay: Blood calcium after single injection in normal cynomolgus monkeys (Example 5); format: in vivo, cynomolgus monkey
Experimental: To further examine how the potent and sustained biological activity induced by AZP-3601 could translate into potential clinical benefit for […] patients, its activity was examined in normal cynomolgus monkeys, a species much closer to humans and the most relevant for first in human dose-selection. Single injections of AZP-3601 were administered to normal cynomolgus monkeys. […] The dissociation between pharmacokinetic profile and pharmacodynamic effect is due to the short circulating half-life of AZP-3601 as opposed to the prolonged signaling caused by AZP-3601's potent interaction with the R^0 conformation of the PTH1 receptor.
In a second study as illustrated in panel B of FIG. 5, monkeys were injected with a single dose of either natural PTH (1-84) at 95 μg/kg, natural PTH (1-34) at 42 μg/kg or AZP-3601 at 42.7 μg/kg, which were equal doses of 10 nmole/kg, adjusted for the molecular weight of the individual compounds. In addition, a lower dose of 10.7 μg AZP-3601/kg (2.5 nmole/kg) was also tested.

[3] = system: PTX mice; assay: Serum calcium after single dosing in HP PTX mouse model (Example 1); format: in vivo
Description: In FIG. 1, the black line indicates the impact of PTX in mice, resulting in serum calcium levels well below normal levels.

[4] = system: TPTX rats; assay: Distal femur BMD by qCT in TPTX rats after 14-day treatment at doses that normalize serum calcium (Example 6); format: in vivo, rat
Experimental: To directly compare the effect of daily subcutaneous injection of AZP-3601 to daily subcutaneous injection and continuous infusion of PTH(1-34), dose levels for each regimen that normalized serum calcium levels in TPTX rats were utilized. These doses corresponded to 50 nmoles/kg/day (205 μg/kg/day) for PTH(1-34) injected daily, 3 nmoles/kg/day (12.3 μg/kg/day) for PTH(1-34) continuously infused, and 1 nmole/kg/day (4.2 μg/kg/day) for AZP-3601 injected daily. After 14 days of treatment, femurs were collected and examined for bone mineral density (BMD) by quantitative computed tomography.

[5] = system: TPTX rats; assay: Urinary calcium, repeated daily sc dosing in HP TPTX rat model (Example 4); format: in vivo; settings: daily sc 3.8 to 30.7 μg/kg/day
Experimental: To examine the effect of repeated dosing with AZP-3601 on urinary calcium levels, TPTX rats were treated with daily subcutaneous injection of AZP-3601 with doses ranging from 3.8 to 30.7 μg/kg/day. As additional controls, separate groups of TPTX rats received daily injections of either natural PTH (1-84) or the vehicle, and a group of normal (with intact thyroid and parathyroid glands, or sham) rats were injected with vehicle. […] The observed increase in urinary calcium excretion with the high dose was a normal kidney response to clear excess blood calcium (FIG. 4).

[6] = system: PTX mice; assay: Urinary calcium after single dosing in HP PTX mice (Example 3); format: in vivo, mouse
[7] = system: healthy subjects; assay: Single and 2-week multiple ascending sc doses in healthy subjects (Example 9); format: in vivo, human

AVAEIQLMHQRAKWIQDARRRAFLHKLIAEIHTAEI [AZP-3601, M-PTH(1-14)/PTHrP(15-36)]
time of significant and maximal effect after injection ([1]; 2.1 μg/kg to 4.3 μg/kg): 24 h
time serum calcium remained elevated post injection ([1]; 10.7 μg/kg or 42.7 μg/kg): at least 4 days
time blood calcium remained significantly elevated after single injection ([2]; cynomolgus monkeys, single 2.1 and 4.2 μg/kg): up to 72 hours
earliest time of significant elevation of blood calcium after injection ([2]; cynomolgus monkeys, single 2.1 and 4.2 μg/kg (0.5 and 1 nmol/kg)): 12 h
time blood calcium remained elevated after injection ([2]; cynomolgus monkeys, single 10.7 or 42.7 μg/kg): at least four days
effect on blood calcium, second study ([2]; cynomolgus monkeys, single dose 10 nmole/kg (AZP-3601 42.7 μg/kg, PTH (1-84) 95 μg/kg, PTH (1-34) 42 μg/kg), AZP-3601 also 10.7 μg/kg (2.5 nmole/kg)): overt hypercalcemia
dose giving a significant increase in blood calcium at 24 hours after injection ([2]; cynomolgus monkeys, single injection, (0.25 nmol/kg)): 1.1 µg/kg
dose giving maximal effect on blood calcium ([2]; cynomolgus monkeys, single injection, (0.5 nmol/kg)): 2.1 µg/kg
potency in elevating serum calcium relative to natural PTH (1-84) or PTH (1-34) ([2]; normal cynomolgus monkeys): approximately 40 fold
effect on blood calcium levels ([2]; normal cynomolgus monkeys, single injection): dose-dependently increased blood calcium levels
duration of normalization of serum calcium ([3]; single dosing 20, 40 or 80 μg/kg): up to 72 hours
effect on serum calcium ([3]; single dosing, AZP-3601 20, 40 or 80 μg/kg, PTH (1-34) 200 μg/kg): dose-related normalization of serum calcium
potency and efficacy in restoring and maintaining blood calcium and phosphate levels ([3]; versus natural PTH (1-34)): more potent and effective than natural PTH (1-34)
femur BMD by quantitative computed tomography, daily injection ([4]; 14 days, PTH(1-34) 50 nmoles/kg/day, AZP-3601 1 nmole/kg/day): no significant effect on BMD
dose that normalized serum calcium levels, daily subcutaneous injection ([4]; injected daily): 1 nmol/kg/day
urinary calcium [5]: no significant increase in urinary calcium except with the highest dose of 30.7 μg/kg/day
urinary calcium excretion [6]: maintenance of normal levels of urinary calcium excretion
duration of sustained calcemic response ([7]; healthy humans, single administration): at least 24 hours
mean endogenous serum PTH ([7]; healthy subjects): dose-dependent decrease
physiological diurnal variation of albumin-adjusted serum calcium, 5 μg and 10 μg ([7]; healthy subjects, 5 μg and 10 μg): gradually attenuated
physiological diurnal variation of albumin-adjusted serum calcium, 20 μg ([7]; healthy subjects, 20 μg): completely eliminated
mean albumin-adjusted serum calcium values, 40 μg ([7]; healthy subjects, 40 μg): significantly increased but stayed within normal laboratory range
time serum calcium remained elevated post-administration, 40 μg ([7]; healthy subjects, 40 μg): at least 24 hours
mean albumin-adjusted serum calcium versus placebo ([7]; healthy subjects, sc): clear, dose-dependent increase in mean albumin-adjusted serum calcium values from baseline
serum calcium levels over 14 days ([7]; normal, healthy subjects, multiple ascending dose cohorts, 14 days): dose dependent and sustained steady state increase in serum calcium levels
